Experimental data as given in PMC10582172.
No constants are given. Whether binding was seen depends on the method and setting.

Chains of the proteins cited; added tags and fusions are not shown.
UniProt Q9V9J3: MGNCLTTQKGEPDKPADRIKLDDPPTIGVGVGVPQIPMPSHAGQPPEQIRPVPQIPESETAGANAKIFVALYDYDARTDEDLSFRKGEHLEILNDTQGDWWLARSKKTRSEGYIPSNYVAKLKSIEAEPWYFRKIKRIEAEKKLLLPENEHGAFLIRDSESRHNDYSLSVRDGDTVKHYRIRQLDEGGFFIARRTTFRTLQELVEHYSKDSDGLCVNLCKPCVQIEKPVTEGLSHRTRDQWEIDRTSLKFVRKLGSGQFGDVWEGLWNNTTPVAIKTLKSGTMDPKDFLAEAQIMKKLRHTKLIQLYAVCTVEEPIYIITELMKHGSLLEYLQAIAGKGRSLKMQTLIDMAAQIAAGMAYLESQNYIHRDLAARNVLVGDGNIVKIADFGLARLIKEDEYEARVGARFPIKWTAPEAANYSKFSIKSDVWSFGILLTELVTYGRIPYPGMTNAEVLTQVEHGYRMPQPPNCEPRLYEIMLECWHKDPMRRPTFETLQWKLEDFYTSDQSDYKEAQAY

Experiments:
[1] = target: Drosophila c-Src homolog Src42A, full-length (aa 1-517) (Drosophila) (UniProt Q9V9J3); experiment: SEC-MALS; protein sample 0.2 mg/ml on Superdex 200 Increase 10/300 in 20 mM Tris, 150 mM NaCl, 1 mM DTT, 5% glycerol; unphosphorylated and autophosphorylated samples; both purified
[2] = target: Drosophila Src42A, full-length (aa 1-517), autophosphorylated (Drosophila) (UniProt Q9V9J3); experiment: as above

binding [1] | binding [2] | Substance
no binding (tested: 0.2 mg/ml) | – | Drosophila c-Src homolog Src42A, full-length (aa 1-517) (from UniProt Q9V9J3 1-517)
– | no binding (tested: 0.2 mg/ml) | Drosophila Src42A, full-length (aa 1-517), autophosphorylated (from UniProt Q9V9J3 1-517)
